Source: PubChem BioAssay AID2685 (National Center for Advancing Translational Sciences (NCATS), 2010)
The other results are listed elsewhere or left out. Further columns of the screen follow, without active or inactive calls. The list favours compounds with an active or inconclusive main result. Potencies come from curve fits of mixed quality, noted in brackets.

Assay: qHTS Assay for Lipid Storage Modulators in Drosophila S3 Cells;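 for cell number change: cells counted by Cell Tracker Red CMTPX staining in the red channel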
Settings: BODIPY lipid droplet fluorescence, 18-24 h; for cell number change: measured here: cell count max response, cells fed with added oleic acid
In short: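 Drosophila S3 cells got compounds at several concentrations plus oleic acid (400 uM solution). Laser-scanning cytometry with 488 nm excitation read lipid droplets at 500-530 nm and cells at 575-640 nm. Percent activity was relative to 20 uM Triacsin C.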

[1] = measured here: cell number channel AC50, cells fed with added oleic acid
[2] = measured here: lipid fluorescence (Fed channel) AC50, cells fed with added oleic acid

COc1ccc(OC)c(C2CC(c3ccc(NS(C)(=O)=O)cc3)=NN2C(=O)c2ccccc2)c1 (configuration not stated)
cell number change: 34.8% | AC50 [1]: 16.4 µM [rising, partial curve]

COc1ccc(NC(=O)CN(C)CC(=O)Nc2ccc(C)c(S(=O)(=O)N3CCCCC3)c2)cc1
cell number change: 7.37% | AC50 [1]: 6.51 µM [falling, single point] | AC50 [2]: 0.00461 µM [falling, full curve, poor fit]

Cc1cccc(CSc2ncccc2C(=O)O)c1
cell number change: 5.23% | AC50 [2]: 20.6 µM [rising, single point]

O=C(Nc1ccc(N2CCN(C(=O)c3cccs3)CC2)cc1)c1ccc(F)cc1
cell number change: -0.427%

Cc1ccc(NC(=O)C2CCCN(S(=O)(=O)c3c(C)noc3/C=C/N(C)C)C2)cc1F (configuration not stated)
cell number change: 36% | AC50 [1]: 0.092 µM [rising, full curve, poor fit] | AC50 [2]: 9.2 µM [rising, single point]

CCOC(=O)c1c(N)sc(C(O)(C(F)(F)F)C(F)(F)F)c1-c1ccccc1
cell number change: -185% | AC50 [1]: 20.6 µM [falling, single point]

CCOc1ccc(-n2nc3c(=S)[nH]nc(C)c3c2C)cc1
cell number change: -10.8% | AC50 [2]: 14.6 µM [rising, partial curve]

CCCCOc1ccc(NC(=O)C(=O)NCCCn2ccnc2)cc1
cell number change: 7.87%

Cn1c(SCc2ccccc2)nc2ccsc2c1=O
cell number change: 19.1%

CCOC(=O)N1CCN(C(=O)CSC2=NS(=O)(=O)c3ccccc3N2)CC1
cell number change: -11.1%

CN1CCN(/C=N/c2c(C#N)cnn2-c2ccccc2)CC1
cell number change: 10.3%

COc1ccc(C(=O)/C=C/Nc2ccc([N+](=O)[O-])cc2)cc1
cell number change: 2.97% | AC50 [2]: 6.51 µM [falling, single point]

CCOC(=O)c1c(NC(=O)CN2C(=O)NC3(CCC(C)CC3)C2=O)sc(C)c1-c1ccc(C)cc1 (configuration not stated)
cell number change: 37.4% | AC50 [1]: 20.6 µM [rising, single point]

O=[N+]([O-])c1ccccc1S(=O)(=O)Nc1cccc2cccnc12
cell number change: -67.9% | AC50 [1]: 17.8 µM [falling, single point] | AC50 [2]: 8.91 µM [falling, partial curve]

COC(=O)C1CCN(C(=O)C(C)Oc2ccc(Cl)cc2Cl)CC1 (configuration not stated)
AC50 [1]: 6.51 µM [falling, single point] | AC50 [2]: 6.51 µM [falling, single point]

CCOc1ccc(N(Cc2ccc(OC)cc2)C(=O)c2ccco2)cc1
AC50 [1]: 2.59 µM [rising, single point]

CC1=NN(c2ccc(Cl)cc2)C(=O)C1
cell number change: -21.2% | AC50 [2]: 16.4 µM [falling, single point]

COc1ccc(/C=N/n2c(N)c(S(=O)(=O)c3cccs3)c3nc4ccccc4nc32)cc1OC
AC50 [1]: 1.3 µM [rising, partial curve] | AC50 [2]: 1.03 µM [rising, full curve]

CCOc1ccc(-c2[nH]nc3c2C(c2ccc4c(c2)OCO4)C(C#N)=C(N)O3)cc1OC (configuration not stated)
cell number change: -15.2%

O=S(=O)(c1ccccc1)N1N=C(c2cccs2)CC1c1ccc(F)cc1 (configuration not stated)
cell number change: 20.1%

Cc1ccccc1CSCC(=O)Nc1ccccc1F
cell number change: 2.92% | AC50 [2]: 3.26 µM [rising, single point]

O=C(O)CC1(CC(=O)Nc2cccc(C(F)(F)F)c2)CCCC1
cell number change: 15.6% | AC50 [2]: 29.1 µM [rising, single point]

O=C(Nc1nccs1)C1CC(=O)N(CCc2ccccc2)C1 (configuration not stated)
cell number change: 5.62%

O=C(N/N=C/C1CCCCC1)c1ccccc1-n1cccc1
AC50 [1]: 3.26 µM [rising, single point] | AC50 [2]: 3.26 µM [rising, partial curve]

Cc1ccc(NS(=O)(=O)c2cccc3cccnc23)cc1Cl
cell number change: -16.3% | AC50 [2]: 29.1 µM [falling, single point]

Cc1ccc(NC(=O)COC(=O)c2ccc3c(c2)OCO3)cc1S(=O)(=O)N1CCCCC1
AC50 [1]: 1.3 µM [falling, full curve] | AC50 [2]: 6.51 µM [rising, single point]

NC(=S)N/N=C/c1c[nH]c2ccccc12
cell number change: 10.7% | AC50 [2]: 4.11 µM [rising, full curve]

CCCCNC(=O)c1cccc(S(=O)(=O)N2CC3(C)CC2CC(C)(C)C3)c1 (configuration not stated)
cell number change: -13.6% | AC50 [2]: 13 µM [falling, partial curve, poor fit]

CC1CCN(C2CC(=O)N(c3ccccc3)C2=O)CC1 (configuration not stated)
cell number change: 1.62% | AC50 [2]: 6.51 µM [falling, single point]

CC(C)n1c(SCC(=O)c2ccc3c(c2)OCCO3)nc2c1c(=O)n(C)c(=O)n2C
cell number change: 32.2% | AC50 [1]: 2.06 µM [rising, full curve]

CC(=O)c1cccc(NC(=O)CN2C(=O)C(=O)N(Cc3ccco3)C2=O)c1
cell number change: 3.18% | AC50 [2]: 4.11 µM [rising, full curve]

Cc1nn(C)cc1CNC(=O)c1cnn2c(C(F)F)cc(C3CC3)nc12
cell number change: -28.1% | AC50 [2]: 2.59 µM [rising, full curve]

N#C/C(=C\c1ccc(N2CCOCC2)o1)C(=O)N1CCOCC1
AC50 [1]: 2.31 µM [falling, partial curve] | AC50 [2]: 6.51 µM [rising, single point]

C=CCn1c(SCC(=O)NC2CCS(=O)(=O)C2)nnc1-c1ccncc1 (configuration not stated)
cell number change: -9.77% | AC50 [1]: 0.731 µM [falling, single point]

O=S(=O)(c1ccc(-c2cnc(C3CC3)o2)cc1)N1CCN(c2ccccc2)CC1
cell number change: -22.6% | AC50 [2]: 32.6 µM [falling, single point]

CC(=O)c1ccc(NC(=O)CN2C(=O)COc3ccc(Cl)cc32)cc1
cell number change: 24.6% | AC50 [2]: 1.46 µM [rising, full curve, poor fit]

COc1cccc(C2CCCN2Cc2nc(CCC(C)C)no2)c1 (configuration not stated)
cell number change: 34.6% | AC50 [1]: 5.8 µM [rising, partial curve]

Cn1c(=O)c2c(SCC(=O)N3CCCC3)nc(CC(C)(C)C)nc2n(C)c1=O
cell number change: -18.7% | AC50 [1]: 2.31 µM [falling, partial curve, poor fit]

O=C(Nc1ccc([N+](=O)[O-])cc1)C(Cc1ccccc1)N1C(=O)c2cccc3cccc(c23)C1=O (configuration not stated)
cell number change: 75.7% | AC50 [1]: 29.1 µM [rising, single point] | AC50 [2]: 0.651 µM [falling, full curve]

Cc1ccc(-c2cn(-c3ccccc3)c(SCC(N)=O)n2)cc1C
cell number change: 19.9% | AC50 [2]: 5.8 µM [rising, full curve]

O=[N+]([O-])c1cccc(C2=NCCC(c3ccccc3)O2)c1 (configuration not stated)
cell number change: 4.62% | AC50 [2]: 14.6 µM [rising, partial curve]

COc1ccc(CNC(=O)c2cc(-c3cccs3)on2)cc1
cell number change: 9.97% | AC50 [2]: 5.8 µM [rising, partial curve]

CCn1c2ccccc2c2cc(NC(=O)c3cccc(OC)c3)ccc21
cell number change: 58.4% | AC50 [1]: 1.3 µM [rising, full curve] | AC50 [2]: 1.64 µM [rising, full curve]

CC(=O)OC1OCCOC1NC(=S)Nc1ccc(C)cc1 (configuration not stated)
cell number change: -0.916% | AC50 [2]: 6.51 µM [rising, single point]

CN(C)S(=O)(=O)c1ccc(C(=O)OCc2ccc(C#N)cc2)cc1
cell number change: 4.74% | AC50 [2]: 29.1 µM [falling, single point]

Cc1ccc(NC(=O)C2CCCNC2=O)nc1 (configuration not stated)
cell number change: -6.98% | AC50 [2]: 6.51 µM [falling, single point]

O=C(CCc1ccc(S(=O)(=O)N2CCOCC2)cc1)N/N=C/c1ccc(O)c(O)c1O
cell number change: 5.64% | AC50 [2]: 1.16 µM [rising, full curve, poor fit]

CCCS(=O)(=O)c1nc(S(=O)(=O)c2ccc(C)cc2)c(N2CCCC(C)C2)s1 (configuration not stated)
AC50 [2]: 8.2 µM [falling, partial curve]

CC(C)(Oc1ccc(Cl)cc1)C(=O)NC1CC1
cell number change: 2.3% | AC50 [2]: 23.1 µM [falling, partial curve, poor fit]

O=C1NCCCC1C(=O)N/N=C/c1ccc([N+](=O)[O-])cc1 (configuration not stated)
cell number change: 28.4% | AC50 [2]: 6.51 µM [falling, single point]

COc1ccc(N(C(=O)c2snc(C(N)=O)c2N)C(C(=O)NC2CCCC2)c2ccc(C)o2)c(OC)c1 (configuration not stated)
cell number change: 3.04% | AC50 [2]: 6.51 µM [rising, single point]

CN(CC(=O)Nc1ccc(F)cc1)C(=O)CN1C(=O)c2cccc([N+](=O)[O-])c2C1=O
cell number change: -0.877% | AC50 [2]: 29.1 µM [rising, single point]

c1cc[n+](CCC[n+]2ccccc2)cc1
cell number change: 17.1% | AC50 [2]: 14.6 µM [rising, partial curve]

CCC(=O)Nc1c(C)nn(-c2ccc(C)c(C)c2)c1C
cell number change: 21% | AC50 [2]: 29.1 µM [rising, single point]

Cn1c(C(O)c2ccc(Br)cc2)nc(Cl)c1Cl (configuration not stated)
cell number change: -24.9%

O=C(CCl)NCCCCCCCCCNC(=O)CCl
cell number change: -17.3% | AC50 [2]: 4.61 µM [falling, full curve]

O=C(CCCn1cncn1)N1CCCC(N2CCN(c3ccc(F)cc3)CC2)C1 (configuration not stated)
cell number change: 8.8%

NCCCSC1=NCCCN1
cell number change: -8.86% | AC50 [2]: 29.1 µM [falling, single point]

Cc1c(C(=O)NC2CC2)oc2ccc(S(=O)(=O)N3CCCCCC3)cc12
cell number change: -30% | AC50 [1]: 0.731 µM [falling, full curve, poor fit] | AC50 [2]: 0.731 µM [rising, full curve]

CCOc1ccccc1N1CCN(Cc2cnc(-c3ccccc3)[nH]2)CC1
cell number change: -24.9% | AC50 [2]: 7.31 µM [falling, partial curve]

Cc1ccc(CNS(=O)(=O)NCc2ccc(Cl)cc2)cc1
cell number change: 2.45%

O=c1[nH]c2ccccc2n1CCCN1CCN(C(c2ccccc2)c2ccccc2)CC1
cell number change: -0.308% | AC50 [2]: 0.00731 µM [rising, full curve, poor fit]
